# Results published in US5554636A, “N-acylated 4-hydroxphenylamine derivatives with analgesic properties and pharmaceutical compositions containing them” (priority 1995, dated 1996).
# Test system: writhes produced by intraperitoneal acetic acid in CD-1 mice
# Experiment: acetic acid writhing test
# Format: in vivo, CD-1 mice (Charles-River)
# Details: oral, 0.4% acetic acid i.p. 25 minutes later
# Description: Analgesic activity was measured in CD-1 mice (Charles-River) on the basis of the following three methods:
# The third method consists in measuring the number of writhes performed by a mouse as a manifestation of the pain produced by an intraperitoneal injection of 10 mL/kg of 0.4% acetic acid solution. […] Following oral administration of each compound, the mice (groups of 8 or more) received, 25 minutes later, an intraperitoneal injection of 10 mL/kg of 0.4% acetic acid. The number of writhes was counted 5-15 minutes after the injection of acetic acid.
compound,measurement,value
CN1CC[C@]23c4c5ccc(O)c4O[C@H]2[C@@H](O)C=C[C@H]3[C@H]1C5 [Morphine],"ED50, acetic acid test",8.2 mg/kg
